The list is a part of this screen's results and no random one: it gathers tests that were run many times, whatever their T/C, doses with no T/C, and many T/C values between a quarter and a half above the control. Other doses and runs of a compound stand elsewhere. T/C: endpoint of the treated group in % of that of the vehicle group. Schedule codes are those of the source, taken here to give the interval after Q, in days (D) or hours (H), and the number of doses after X. Some entries were tested several times; the values are given in rising order. Some T/C values carry the count of animals alive at the toxicity check (mostly the fifth day); where none is given, no animal had died by that day. Some T/C values are negative: the treated tumours shrank. Some entries give survivors of the animals treated and no T/C: the source files T/C as zero there, which appears to mark a toxic dose or a test without result, not a measured value. Counts of survivors are from the toxicity check (mostly the fifth day) where no day follows; animals may have died later.
Test system: CD8F1 mice, subcutaneous mammary adenocarcinoma, T/C%
Assay: NCI In Vivo Anticancer Drug Screen. Data for tumor model Mammary Adenocarcinoma CD8F1 (subcutaneous) in CD8F1
Details: higher T/C = larger tumour
Outline: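 Transplantable tumors were established in mice, animals were dosed with compound or vehicle, and survival or tumor size was then measured in both groups. The treated result was divided by the control result.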

[1] = T/C endpoint: median tumor weight change, dose: 500.0 mg/kg/injection, schedule: Q01DX001 (ip), vehicle: saline with Tween-80
[2] = T/C endpoint: median tumor weight change, dose: 1000.0 mg/kg/injection, schedule: Q01DX001 (ip), vehicle: saline with Tween-80
[3] = T/C endpoint: median tumor weight change, dose: 2000.0 mg/kg/injection, schedule: Q01DX001 (ip), vehicle: saline with Tween-80
[4] = T/C endpoint: median tumor weight (est.), dose: 400.0 mg/kg/injection, schedule: Q07DX005 (ip), vehicle: Klucel (hydroxypropylcellulose) (HPC)
[5] = T/C endpoint: median tumor weight (est.), dose: 25.0 mg/kg/injection, schedule: Q07DX005 (ip), vehicle: Klucel (hydroxypropylcellulose) (HPC), evaluated on day 30

CNC(=O)OCc1c(COC(=O)NC)c(-c2ccccc2)n(C)c1-c1ccccc1
T/C (T/C endpoint: median tumor weight change, dose: 62.5 mg/kg/injection, schedule: Q01DX001 (ip), vehicle: distilled water + Tween-80, evaluated on day 24): 5 % of control
T/C (T/C endpoint: median tumor weight change, dose: 62.5 mg/kg/injection, schedule: Q01DX001 (ip), vehicle: distilled water + Tween-80, evaluated on day 27): 15 % of control
T/C (T/C endpoint: median tumor weight change, dose: 62.5 mg/kg/injection, schedule: Q01DX001 (ip), vehicle: distilled water + Tween-80, evaluated on day 28): 46 and 67 % of control
T/C (T/C endpoint: median tumor weight change, dose: 62.5 mg/kg/injection, schedule: Q01DX001 (ip), vehicle: distilled water + Tween-80, evaluated on day 49): 58 % of control
T/C (T/C endpoint: median tumor weight change, dose: 125.0 mg/kg/injection, schedule: Q01DX001 (ip), vehicle: distilled water + Tween-80, evaluated on day 27): -44 % of control [9 of 10 alive on day 27]
T/C (T/C endpoint: median tumor weight change, dose: 125.0 mg/kg/injection, schedule: Q01DX001 (ip), vehicle: distilled water + Tween-80, evaluated on day 28): -38 [8 of 10 alive on day 28] and 10 % of control [7 of 10 alive on day 28]
T/C (T/C endpoint: median tumor weight change, dose: 125.0 mg/kg/injection, schedule: Q01DX001 (ip), vehicle: distilled water + Tween-80, evaluated on day 49): 33 % of control
survivor count (T/C endpoint: median tumor weight change, dose: 125.0 mg/kg/injection, schedule: Q01DX001 (ip), vehicle: distilled water + Tween-80): 1 of 10 on day 24
survivor count (T/C endpoint: median tumor weight change, dose: 250.0 mg/kg/injection, schedule: Q01DX001 (ip), vehicle: distilled water + Tween-80): 0 of 10 on day 24, 0 of 10 on day 28, 1 of 10 on day 27, 2 of 10 on day 28, 2 of 10 on day 49
survivor count (T/C endpoint: median tumor weight change, dose: 500.0 mg/kg/injection, schedule: Q01DX001 (ip), vehicle: distilled water + Tween-80): 0 of 10 on day 27, 0 of 10 on day 28, 0 of 10 on day 49, 1 of 10 on day 28
survivor count (T/C endpoint: median tumor weight change, dose: 1000.0 mg/kg/injection, schedule: Q01DX001 (ip), vehicle: distilled water + Tween-80): 0 of 10 on day 28
survivor count (T/C endpoint: median tumor weight change, dose: 2000.0 mg/kg/injection, schedule: Q01DX001 (ip), vehicle: distilled water + Tween-80): 0 of 8 on day 28

NCCCNCCSP(=O)(O)O
survivor count (T/C endpoint: median tumor weight (est.), dose: 800.0 mg/kg/injection, schedule: Q07DX005 (ip), vehicle: saline with Tween-80): 0 of 10 on day 30

Nc1nc(F)nc2c1ncn2C1OC(COP(=O)(O)O)C(O)C1O (stereo unspecified)
survivor count (T/C endpoint: median tumor weight (est.), dose: 400.0 mg/kg/injection, schedule: Q07DX005 (ip), vehicle: suspension in saline): 1 of 10 on day 30

CCNC(C)(C)C(SSS)c1ccco1 (stereo unspecified)
survivor count [1]: 6 of 10 on day 32

CN(C)CCN1C(=O)c2cccc3cc(N)cc(c23)C1=O
T/C (T/C endpoint: median tumor weight change, dose: 10.0 mg/kg/injection, schedule: Q01DX001 (ip), vehicle: saline with Tween-80, evaluated on day 29): 139 % of control
survivor count (T/C endpoint: median tumor weight change, dose: 80.0 mg/kg/injection, schedule: Q01DX001 (ip), vehicle: saline with Tween-80): 5 of 10 on day 30
survivor count (T/C endpoint: median tumor weight change, dose: 160.0 mg/kg/injection, schedule: Q01DX001 (ip), vehicle: saline with Tween-80): 0 of 10 on day 28, 0 of 10 on day 29, 2 of 10 on day 30

C[C@H](N)C(=O)N[C@@H]1[C@H]2C(=C(O)C[C@@H](O)[C@@H]2O)C(=O)O[C@@H]1C
T/C (T/C endpoint: median tumor weight change, dose: 500.0 mg/kg/injection, schedule: Q01DX001 (ip), vehicle: saline, evaluated on day 28): 136 % of control
survivor count (T/C endpoint: median tumor weight change, dose: 4000.0 mg/kg/injection, schedule: Q01DX001 (ip), vehicle: saline): 0 of 10 on day 28

CCOC(=O)c1c[nH]c2oc(/C=N/N3CC(CN4CCOCC4)OC3=O)cc2c1=O (stereo unspecified)
T/C (T/C endpoint: median tumor weight (est.), dose: 200.0 mg/kg/injection, schedule: Q07DX005 (ip), vehicle: suspension in saline, evaluated on day 30): 140 % of control [8 of 10 alive]

C[CH2][Ge]([CH2]C)[CH2]C.C[CH2][Ge]([CH2]C)[CH2]C.C[CH2][Ge]([CH2]C)[O][Ge]([CH2]C)[CH2]C
T/C (T/C endpoint: median tumor weight change, dose: 125.0 mg/kg/injection, schedule: Q01DX001 (ip), vehicle: saline with Tween-80, evaluated on day 28): 130 % of control
survivor count [1]: 6 of 10 on day 35
survivor count [2]: 1 of 10 on day 28 and 6 of 10 on day 35
survivor count [3]: 0 of 10 on day 28 and 3 of 10 on day 35

CC(C)NCC(O)COc1ccc(O)c(O)c1 (stereo unspecified)
survivor count (T/C endpoint: median tumor weight change, dose: 250.0 mg/kg/injection, schedule: Q01DX001 (ip), vehicle: saline): 2 of 10 on day 29 and 3 of 10 on day 31
survivor count (T/C endpoint: median tumor weight change, dose: 500.0 mg/kg/injection, schedule: Q01DX001 (ip), vehicle: saline): 1 of 10 on day 29 and 1 of 10 on day 31
survivor count (T/C endpoint: median tumor weight change, dose: 1000.0 mg/kg/injection, schedule: Q01DX001 (ip), vehicle: saline): 0 of 10 on day 31 and 1 of 10 on day 29
survivor count (T/C endpoint: median tumor weight change, dose: 2000.0 mg/kg/injection, schedule: Q01DX001 (ip), vehicle: saline): 0 of 10 on day 29 and 0 of 10 on day 31

C=Cc1cnc([N+](=O)[O-])n1C
survivor count (T/C endpoint: median tumor weight (est.), dose: 50.0 mg/kg/injection, schedule: Q07DX005 (ip), vehicle: Klucel (hydroxypropylcellulose) (HPC)): 5 of 10 on day 30
survivor count [4]: 0 of 10 on day 30

CCCCC(C)(C(=O)OCC)C(=O)OCC
T/C [5]: 138 % of control
T/C (T/C endpoint: median tumor weight (est.), dose: 50.0 mg/kg/injection, schedule: Q07DX005 (ip), vehicle: Klucel (hydroxypropylcellulose) (HPC), evaluated on day 30): 137 % of control
T/C (T/C endpoint: median tumor weight (est.), dose: 100.0 mg/kg/injection, schedule: Q07DX005 (ip), vehicle: Klucel (hydroxypropylcellulose) (HPC), evaluated on day 30): 135 % of control [9 of 10 alive]

C[CH2][Sn]([CH2]C)([O]S(C)(=O)=O)[O]S(C)(=O)=O
survivor count (T/C endpoint: median tumor weight change, dose: 31.25 mg/kg/injection, schedule: Q01DX001 (ip), vehicle: saline): 3 of 10 on day 37
survivor count (T/C endpoint: median tumor weight change, dose: 62.5 mg/kg/injection, schedule: Q01DX001 (ip), vehicle: saline): 0 of 10 on day 37

[N-]=[N+]=CC(=O)CCC(N)C(=O)O (stereo unspecified)
survivor count (T/C endpoint: median tumor weight (est.), dose: 200.0 mg/kg/injection, schedule: Q01DX001 (ip), vehicle: saline): 5 of 10 on day 33

CC(=O)OC1=NC(C)c2c1cc(OC(C)=O)[nH]c2=O (stereo unspecified)
survivor count (T/C endpoint: median tumor weight (est.), dose: 100.0 mg/kg/injection, schedule: Q07DX005 (ip), vehicle: Klucel (hydroxypropylcellulose) (HPC)): 6 of 10 on day 30
survivor count (T/C endpoint: median tumor weight (est.), dose: 200.0 mg/kg/injection, schedule: Q07DX005 (ip), vehicle: Klucel (hydroxypropylcellulose) (HPC)): 1 of 10 on day 30
survivor count [4]: 0 of 10 on day 30

CC(=O)Nc1cscc1NC(C)=O
survivor count [3]: 3 of 10 on day 29 and 5 of 10 on day 36

CN1CCc2c(c3ccccc3c3ccccc23)C1
survivor count (T/C endpoint: median tumor weight change, dose: 200.0 mg/kg/injection, schedule: Q01DX001 (ip), vehicle: Klucel (hydroxypropylcellulose) (HPC)): 0 of 10 on day 28
survivor count (T/C endpoint: median tumor weight change, dose: 250.0 mg/kg/injection, schedule: Q01DX001 (ip), vehicle: Klucel (hydroxypropylcellulose) (HPC)): 2 of 10 on day 36
survivor count (T/C endpoint: median tumor weight change, dose: 500.0 mg/kg/injection, schedule: Q01DX001 (ip), vehicle: Klucel (hydroxypropylcellulose) (HPC)): 0 of 10 on day 36

O=c1[nH]c(=O)n([C@H]2CCCO2)cc1F
T/C [5]: 139 % of control [9 of 10 alive]
T/C (T/C endpoint: median tumor weight (est.), dose: 80.0 mg/kg/injection, schedule: Q07DX005 (ip), vehicle: Klucel (hydroxypropylcellulose) (HPC), evaluated on day 30): 130 % of control
survivor count (T/C endpoint: median tumor weight (est.), dose: 640.0 mg/kg/injection, schedule: Q07DX005 (ip), vehicle: Klucel (hydroxypropylcellulose) (HPC)): 5 of 10

O=C1CN(Cc2ccc3c(c2)OCO3)NO1
T/C (T/C endpoint: median tumor weight change, dose: 31.25 mg/kg/injection, schedule: Q01DX001 (ip), vehicle: saline with Tween-80, evaluated on day 31): 142 % of control

C=C(C)[C@]12CC(C)C34OC(/C=C\C=C\CCCCCCCCC)(O[C@@H]1[C@@H]3[C@@H]1O[C@]1(CO)[C@@H](O)[C@]1(O)C(=O)C(C)=C[C@@H]41)O2 (stereo partly specified)
survivor count (T/C endpoint: median tumor weight (est.), dose: 3.0 mg/kg/injection, schedule: Q07DX002 (ip), vehicle: saline + alcohol): 6 of 10
survivor count (T/C endpoint: median tumor weight (est.), dose: 6.0 mg/kg/injection, schedule: Q07DX002 (ip), vehicle: saline + alcohol): 1 of 10
survivor count (T/C endpoint: median tumor weight (est.), dose: 12.0 mg/kg/injection, schedule: Q07DX002 (ip), vehicle: saline + alcohol): 4 of 10

Nc1ccn([C@@H](C=O)O[C@@H](C=O)CO)c(=O)n1
T/C (T/C endpoint: median tumor weight (est.), dose: 12.5 mg/kg/injection, schedule: Q07DX005 (ip), vehicle: suspension in saline, evaluated on day 30): 141 % of control

ClCc1ccc2ccccc2n1
survivor count [1]: 0 of 10 on day 32
survivor count [2]: 0 of 10 on day 32

CC1=C2CC(C)(C)/C=C\C(=O)/C(C)=C\C3=C[C@H](C)C[C@]3(O2)C1=O
T/C (T/C endpoint: median tumor weight (est.), dose: 3.0 mg/kg/injection, schedule: Q07DX005 (ip), vehicle: saline, evaluated on day 30): 145 % of control
T/C (T/C endpoint: median tumor weight (est.), dose: 24.0 mg/kg/injection, schedule: Q07DX005 (ip), vehicle: saline, evaluated on day 30): 130 % of control

Source: PubChem BioAssay AID220 (DTP/NCI, 2004)
